# This is one part of the list. Repeats are few or missing, and single values can be far off.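 Imaging used 1,536-well plates; nuclei positive for cleaved PARP by antibody were divided by total DNA-stained nuclei to yield the apoptosis fraction. Doses for screening kept most cells viable, and cell lines differ markedly in resting and induced cleaved-PARP levels.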
# Assays:
# Assay in all cases: cleaved PARP positive nuclei fraction relative to DMSO control; melanoma cells; higher = more apoptosis
# Conditions in all cases: library dose: low library concentration; 72 h
# MZ2-MEL = test system: MZ2-MEL
# MeWo = test system: MeWo
# RPMI7951 = test system: RPMI7951
# RVH-421 = test system: RVH-421
# SkMel28 = test system: SkMel28
# SkMel30 = test system: SkMel30
# SkMel5 = test system: SkMel5
# UACC257 = test system: UACC257
# UACC62 = test system: UACC62
# SkMel2 = test system: SkMel2
Structure (SMILES),cleaved PARP positive nuclei fraction (MZ2-MEL),cleaved PARP positive nuclei fraction (MeWo),cleaved PARP positive nuclei fraction (RPMI7951),cleaved PARP positive nuclei fraction (RVH-421),cleaved PARP positive nuclei fraction (SkMel28),cleaved PARP positive nuclei fraction (SkMel30),cleaved PARP positive nuclei fraction (SkMel5),cleaved PARP positive nuclei fraction (UACC257),cleaved PARP positive nuclei fraction (UACC62),cleaved PARP positive nuclei fraction (SkMel2)
"C[C@]12O[C@H](C[C@]1(O)CO)n1c3ccccc3c3c4c(c5c6ccccc6n2c5c31)CNC4=O [Lestaurtinib] + COc1cc2c(Oc3ccc4[nH]c(C)cc4c3F)ncnc2cc1OCCCN1CCCC1 [cediranib] (first compound 0.004 µM, partner dose 0.4 µM)",173%,154%,57.7%,45.4%,41.4%,28.5%,37.1%,71.9%,42.7%,–
"C[C@]12O[C@H](C[C@]1(O)CO)n1c3ccccc3c3c4c(c5c6ccccc6n2c5c31)CNC4=O [Lestaurtinib] + Cc1cc(Nc2cc(N3CCN(C)CC3)nc(/C=C/c3ccccc3)n2)n[nH]1 [ENMD2076] (first compound 0.004 µM, partner dose 0.04 µM)",53.1%,199%,77.6%,124%,184%,112%,–,–,118%,–
"C[C@]12O[C@H](C[C@]1(O)CO)n1c3ccccc3c3c4c(c5c6ccccc6n2c5c31)CNC4=O [Lestaurtinib] + CCCS(=O)(=O)Nc1ccc(F)c(C(=O)c2c[nH]c3ncc(Cl)cc23)c1F [PLX4720] (first compound 0.004 µM, partner dose 0.08 µM)",92.4%,50.4%,88%,219%,40.2%,144%,–,–,45.2%,–
"Cc1ccc(NC(=O)c2cccc(N(C)C)c2)cc1NC(=O)c1ccc(O)cc1 + Cc1cc(SCc2sc(-c3ccc(C(F)(F)F)c(F)c3)nc2C)ccc1OCC(=O)O [GW0742] (first compound 2 µM, partner dose 2 µM)",–,165%,44.5%,46%,75.9%,124%,42.9%,153%,32.2%,–
"N.N.[Cl][Pt][Cl] [cisplatin] + O=C(O)c1ccc(-c2c[nH]c3ncc(-c4ccccc4)cc23)cc1C1CCCC1 [GSK650394] (first compound 1.6 µM, partner dose 0.16 µM)",–,77.6%,76.8%,52.8%,86.5%,73.2%,194%,79.1%,73.2%,66.2%
"N.N.[Cl][Pt][Cl] [cisplatin] + CCN(CC)CCCCNc1ncc2cc(-c3cc(OC)cc(OC)c3)c(NC(=O)NC(C)(C)C)nc2n1 [PD173074] (first compound 1.6 µM, partner dose 0.1 µM)",–,35.3%,133%,150%,215%,30.3%,72.6%,54.7%,97%,–
"C[C@]12O[C@H](C[C@]1(O)CO)n1c3ccccc3c3c4c(c5c6ccccc6n2c5c31)CNC4=O [Lestaurtinib] + OCc1c[nH]c2ccccc12 [Indole-3-carbinol] (first compound 0.004 µM, partner dose 0.8 µM)",161%,690%,80.6%,105%,86.5%,76.3%,–,–,132%,–
"C[C@]12O[C@H](C[C@]1(O)CO)n1c3ccccc3c3c4c(c5c6ccccc6n2c5c31)CNC4=O [Lestaurtinib] + CS(=O)(=O)c1ccc(C(=O)Nc2ccc(Cl)c(-c3ccccn3)c2)c(Cl)c1 [vismodegib] (first compound 0.004 µM, partner dose 1 µM)",56.1%,226%,30.8%,80.4%,128%,116%,–,–,242%,–
"Cc1cc(SCc2sc(-c3ccc(C(F)(F)F)c(F)c3)nc2C)ccc1OCC(=O)O + COc1cc2ncnc(Nc3ccc(Oc4ccccc4)cc3)c2cc1OC [SrcI1] (first compound 2 µM, partner dose 2 µM)",–,233%,242%,81.6%,77.5%,40.4%,55.3%,115%,162%,–
"Cn1cc(C2=C(c3cn(C4CCN(Cc5ccccn5)CC4)c4ccccc34)C(=O)NC2=O)c2ccccc21 [Enzastaurin] + CO[C@H]1C[C@@H]2CC[C@@H](C)[C@@](O)(O2)C(=O)C(=O)N2CCCC[C@H]2C(=O)O[C@H]([C@H](C)C[C@@H]2CC[C@@H](OCCO)[C@H](OC)C2)CC(=O)[C@H](C)/C=C(\C)[C@@H](O)[C@@H](OC)C(=O)[C@H](C)C[C@H](C)/C=C/C=C/C=C/1C [everolimus] (first compound 0.8 µM, partner dose 0.02 µM)",78.2%,53%,111%,129%,44%,40.7%,–,–,85.1%,–
"C[C@]12O[C@H](C[C@]1(O)CO)n1c3ccccc3c3c4c(c5c6ccccc6n2c5c31)CNC4=O [Lestaurtinib] + CS(=O)(=O)CCNCc1ccc(-c2ccc3ncnc(Nc4ccc(OCc5cccc(F)c5)c(Cl)c4)c3c2)o1 [lapatinib] (first compound 0.004 µM, partner dose 0.8 µM)",66.5%,240%,143%,46.7%,81.8%,84.9%,–,–,167%,–
"C[C@]12O[C@H](C[C@]1(O)CO)n1c3ccccc3c3c4c(c5c6ccccc6n2c5c31)CNC4=O [Lestaurtinib] + C[C@]1(O)C[C@@H](c2nc(-c3ccc4ccc(-c5ccccc5)nc4c3)c3c(N)nccn32)C1 [OSI906] (first compound 0.004 µM, partner dose 0.4 µM)",128%,48.7%,96.6%,106%,45.5%,81.4%,–,–,129%,–
"C[C@]12O[C@H](C[C@]1(O)CO)n1c3ccccc3c3c4c(c5c6ccccc6n2c5c31)CNC4=O [Lestaurtinib] + O=C(O)[C@@H]1[O][Sb](=[O])([O][Sb]2(=[O])[O][C@H]([C@H](O)CO)[C@H](O)[C@H](C(=O)O)[O]2)[O][C@H]([C@H](O)CO)[C@@H]1O [stibogluconate] (first compound 0.004 µM, partner dose 2 µM)",83.2%,270%,53.2%,60%,99.1%,76.7%,–,–,59.8%,–
"C[C@]12O[C@H](C[C@]1(O)CO)n1c3ccccc3c3c4c(c5c6ccccc6n2c5c31)CNC4=O [Lestaurtinib] + O=C(O)c1ccc2c(c1)nc(Nc1cccc(Cl)c1)c1ccncc12 [CX4945] (first compound 0.004 µM, partner dose 0.4 µM)",114%,65.7%,48.9%,73.3%,161%,116%,–,–,115%,–
"C[C@]12O[C@H](C[C@]1(O)CO)n1c3ccccc3c3c4c(c5c6ccccc6n2c5c31)CNC4=O [Lestaurtinib] + CN1CCN(c2ccc3nc(-c4c(N)c5c(F)cccc5[nH]c4=O)[nH]c3c2)CC1 [Dovitinib] (first compound 0.004 µM, partner dose 0.1 µM)",73.8%,266%,79.8%,219%,76.7%,32.7%,–,–,165%,–
"Cc1ccc(Nc2nccc(N(C)c3ccc4c(C)n(C)nc4c3)n2)cc1S(N)(=O)=O [Pazopanib] + C[C@]12O[C@H](C[C@]1(O)CO)n1c3ccccc3c3c4c(c5c6ccccc6n2c5c31)CNC4=O [Lestaurtinib] (first compound 0.4 µM, partner dose 0.004 µM)",64.9%,67%,99.7%,73.9%,124%,38.1%,–,–,103%,–
"C[C@@H](N)c1ccc(C(=O)Nc2ccnc3[nH]ccc23)cc1 + C[C@]12O[C@H](C[C@]1(O)CO)n1c3ccccc3c3c4c(c5c6ccccc6n2c5c31)CNC4=O [Lestaurtinib] (first compound 0.4 µM, partner dose 0.004 µM)",342%,209%,137%,143%,65.3%,64%,–,–,171%,–
"C[C@]12O[C@H](C[C@]1(O)CO)n1c3ccccc3c3c4c(c5c6ccccc6n2c5c31)CNC4=O [Lestaurtinib] + C[C@]1(c2nc3c(C(N)=O)cccc3[nH]2)CCCN1 [Veliparib] (first compound 0.004 µM, partner dose 1.4 µM)",70.4%,31.3%,98%,101%,80%,103%,–,–,85.4%,–
"C[C@]12O[C@H](C[C@]1(O)CO)n1c3ccccc3c3c4c(c5c6ccccc6n2c5c31)CNC4=O [Lestaurtinib] + Nc1nc(F)nc2c1ncn2[C@@H]1O[C@H](CO)[C@@H](O)[C@@H]1O [fludarabine] (first compound 0.004 µM, partner dose 0.2 µM)",85.8%,534%,80.8%,139%,237%,851%,–,–,330%,–
"Cn1cnc2c(F)c(Nc3ccc(Br)cc3Cl)c(C(=O)NOCCO)cc21 [selumetinib] + C[C@]12O[C@H](C[C@]1(O)CO)n1c3ccccc3c3c4c(c5c6ccccc6n2c5c31)CNC4=O [Lestaurtinib] (first compound 0.015 µM, partner dose 0.004 µM)",422%,72.7%,99.6%,302%,132%,189%,–,–,202%,–
"C[C@]12O[C@H](C[C@]1(O)CO)n1c3ccccc3c3c4c(c5c6ccccc6n2c5c31)CNC4=O [Lestaurtinib] + CC(C)C[C@H](NC(=O)[C@H](Cc1ccccc1)NC(=O)c1cnccn1)B(O)O [Bortezomib] (first compound 0.004 µM, partner dose 0.001 µM)",86%,73.1%,159%,65%,37%,19.7%,–,–,86.8%,–
"N.N.[Cl][Pt][Cl] [cisplatin] + O=C(Oc1ccc([N+](=O)[O-])cc1)N1CCC(C(O)(c2ccc3c(c2)OCO3)c2ccc3c(c2)OCO3)CC1 [JZL184] (first compound 1.6 µM, partner dose 1 µM)",–,76.1%,1420%,63.3%,150%,82.1%,78.6%,45.9%,129%,–

# A run of entries taken from the entries so far:
Structure (SMILES),cleaved PARP positive nuclei fraction (MZ2-MEL),cleaved PARP positive nuclei fraction (MeWo),cleaved PARP positive nuclei fraction (RPMI7951),cleaved PARP positive nuclei fraction (RVH-421),cleaved PARP positive nuclei fraction (SkMel28),cleaved PARP positive nuclei fraction (SkMel30),cleaved PARP positive nuclei fraction (SkMel5),cleaved PARP positive nuclei fraction (UACC257),cleaved PARP positive nuclei fraction (UACC62),cleaved PARP positive nuclei fraction (SkMel2)
"C[C@]12O[C@H](C[C@]1(O)CO)n1c3ccccc3c3c4c(c5c6ccccc6n2c5c31)CNC4=O [Lestaurtinib] + CS(=O)(=O)c1ccc(C(=O)Nc2ccc(Cl)c(-c3ccccn3)c2)c(Cl)c1 [vismodegib] (first compound 0.004 µM, partner dose 1 µM)",56.1%,226%,30.8%,80.4%,128%,116%,–,–,242%,–
"Cc1cc(SCc2sc(-c3ccc(C(F)(F)F)c(F)c3)nc2C)ccc1OCC(=O)O + COc1cc2ncnc(Nc3ccc(Oc4ccccc4)cc3)c2cc1OC [SrcI1] (first compound 2 µM, partner dose 2 µM)",–,233%,242%,81.6%,77.5%,40.4%,55.3%,115%,162%,–
"Cn1cc(C2=C(c3cn(C4CCN(Cc5ccccn5)CC4)c4ccccc34)C(=O)NC2=O)c2ccccc21 [Enzastaurin] + CO[C@H]1C[C@@H]2CC[C@@H](C)[C@@](O)(O2)C(=O)C(=O)N2CCCC[C@H]2C(=O)O[C@H]([C@H](C)C[C@@H]2CC[C@@H](OCCO)[C@H](OC)C2)CC(=O)[C@H](C)/C=C(\C)[C@@H](O)[C@@H](OC)C(=O)[C@H](C)C[C@H](C)/C=C/C=C/C=C/1C [everolimus] (first compound 0.8 µM, partner dose 0.02 µM)",78.2%,53%,111%,129%,44%,40.7%,–,–,85.1%,–
"C[C@]12O[C@H](C[C@]1(O)CO)n1c3ccccc3c3c4c(c5c6ccccc6n2c5c31)CNC4=O [Lestaurtinib] + CS(=O)(=O)CCNCc1ccc(-c2ccc3ncnc(Nc4ccc(OCc5cccc(F)c5)c(Cl)c4)c3c2)o1 [lapatinib] (first compound 0.004 µM, partner dose 0.8 µM)",66.5%,240%,143%,46.7%,81.8%,84.9%,–,–,167%,–

# Source: the supplement of paper PMC4604168 (melanoma cell lines)
